Test results reported in US20260209348A1.
Positions count from the first letter of the chain named. These are yes or no findings as the source states them, for the method shown. Some entries that bind do so weakly or less than the wild type.

By UniProt entry, the sequences of proteins in these tests, tags left out. Where a name states a change or a piece, a line headed by the entry shows the natural chain unless it says otherwise.
UniProt Q01974: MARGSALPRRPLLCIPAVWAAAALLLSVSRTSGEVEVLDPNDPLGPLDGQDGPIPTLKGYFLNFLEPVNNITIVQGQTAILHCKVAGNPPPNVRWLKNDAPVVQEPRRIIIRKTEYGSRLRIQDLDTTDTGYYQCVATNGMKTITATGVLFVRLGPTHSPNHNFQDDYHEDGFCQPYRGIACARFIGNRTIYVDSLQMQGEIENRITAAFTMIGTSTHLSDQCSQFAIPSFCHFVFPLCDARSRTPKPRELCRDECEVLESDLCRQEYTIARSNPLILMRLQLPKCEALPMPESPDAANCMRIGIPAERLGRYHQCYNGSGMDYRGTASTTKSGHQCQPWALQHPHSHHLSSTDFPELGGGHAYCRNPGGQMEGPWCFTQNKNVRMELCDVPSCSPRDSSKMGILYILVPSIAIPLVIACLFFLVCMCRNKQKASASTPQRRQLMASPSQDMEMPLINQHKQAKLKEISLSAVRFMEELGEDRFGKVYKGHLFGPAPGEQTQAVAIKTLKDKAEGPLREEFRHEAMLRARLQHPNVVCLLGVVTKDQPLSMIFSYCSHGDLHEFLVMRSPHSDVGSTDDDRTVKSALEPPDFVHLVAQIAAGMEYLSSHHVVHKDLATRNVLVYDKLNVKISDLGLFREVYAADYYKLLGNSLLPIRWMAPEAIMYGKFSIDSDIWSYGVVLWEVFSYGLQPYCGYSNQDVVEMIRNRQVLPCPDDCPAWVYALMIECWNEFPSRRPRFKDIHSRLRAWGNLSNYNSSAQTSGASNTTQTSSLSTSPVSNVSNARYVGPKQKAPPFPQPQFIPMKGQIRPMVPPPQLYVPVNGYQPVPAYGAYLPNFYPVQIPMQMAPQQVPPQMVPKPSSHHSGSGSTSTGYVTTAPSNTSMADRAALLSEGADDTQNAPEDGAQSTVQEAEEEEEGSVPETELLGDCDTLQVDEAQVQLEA

B1: h6E6-104 scFv clone (scFv, V domains shown)
VH: EVQLVESGGGLVKPGGSLRLSCAASGFTFSSYGVSWVRQAPGKGLEWVSTISSGGGYTHYVESVKGRFTISRDNAKNSLYLQMNSLRAEDTAVYYCARHPRDFSYAQDYWGQGTTVTVSS
VL: EIVMTQSPATLSVSPGERATLSCKASQDVGHYLAWYQQKPGQAPRLLIYWASTRATGIPARFSGSGSGTEFTLTISSLQSEDFAVYYCQQYNIYPWTFGQGTKVEIK
B2: h6E6-105 scFv clone (scFv, V domains shown)
VH: B1 VH with S31T, V34H, E62A, Q107M
VL: B1 VL with K24R, L33V, A55H, T102I
B3: h6E6-106 scFv clone (scFv, V domains shown)
VH: B1 VH with V34I, H59Y, E62D, Q107L
VL: B1 VL with L33V
B4: h6E6-107 scFv clone (scFv, V domains shown)
VH: B1 VH with S31T, V34A, V61A, E62P, Q107L
VL: B1 VL with L33V
B5: h6E6-108 scFv clone (scFv, V domains shown)
VH: B1 VH with S31R, V61A, Q107M
VL: B1 VL
B6: h6E6-109 scFv clone (scFv, V domains shown)
VH: B1 VH with S31N, V34T, E62T, Q107M
VL: B1 VL with L33V
B7: h6E6-110 scFv clone (scFv, V domains shown)
VH: B1 VH with S31H, V61A
VL: B1 VL with K24R
B8: h6E6-111 scFv clone (scFv, V domains shown)
VH: B1 VH with S31T, V34M, S35N, V61A, Q107V
VL: B1 VL
B9: h6E6-112 scFv clone (scFv, V domains shown)
VH: B1 VH with V34I, V61A, E62A, Q107L
VL: B1 VL with L33V, A55H
B10: h6E6-113 scFv clone (scFv, V domains shown)
VH: B1 VH with S31N, V34M, V61A, E62P, Q107M
VL: B1 VL
B11: h6E6-114 scFv clone (scFv, V domains shown)
VH: B1 VH with S31K, V34M, E62T, Q107M
VL: B1 VL
B12: h6E6-115 scFv clone (scFv, V domains shown)
VH: B1 VH with S31G, V34M, E62T, Q107L
VL: B1 VL with K24R
B13: h6E6-116 scFv clone (scFv, V domains shown)
VH: B1 VH with S31T, V61A, E62G, Q107L
VL: B1 VL with K24R
B14: h6E6-117 scFv clone (scFv, V domains shown)
VH: B1 VH with S31V, V34I, V61A, E62P, Q107M
VL: B1 VL with L33V
B15: h6E6-118 scFv clone (scFv, V domains shown)
VH: B1 VH with S31R, V34H, H59Y, V61A, Q107H
VL: B1 VL with K24R, L33V, A55H
B16: h6E6-119 scFv clone (scFv, V domains shown)
VH: B1 VH with S31A, V34T, E62H, Q107M
VL: B1 VL with L33V, A55H
B17: h6E6-120 scFv clone (scFv, V domains shown)
VH: B1 VH with V34M, E62Q, Q107M
VL: B1 VL
B18: h6E6-116 anti-human ROR2 chimeric antigen receptor (protein, not shown: small tags and cut ends)
chain: EVQLVESGGGLVKPGGSLRLSCAASGFTFSTYGVSWVRQAPGKGLEWVSTISSGGGYTHYAGSVKGRFTISRDNAKNSLYLQMNSLRAEDTAVYYCARHPRDFSYALDYWGQGTTVTVSSEIVMTQSPATLSVSPGERATLSCRASQDVGHYLAWYQQKPGQAPRLLIYWASTRATGIPARFSGSGSGTEFTLTISSLQSEDFAVYYCQQYNIYPWTFGQGTKVEIK

Target: human ROR2 (human) (UniProt Q01974)
Test: ELISA, scFv clones

binding, binds:
B1
B2
B3
B4
B5
B6
B7
B8
B9
B10
B11
B12
B13
B14
B15
B16
B17

Target: recombinant human ROR2-Ig (human) (UniProt Q01974)
Test: flow cytometry, CAR-transfected Jurkat cells, 1 µg/ml ROR2-Ig

binding, binds:
B18
